US20090312294A1, “Method and Agent for Reducing Weight, Accelerating Lipid Catabolism, and/or Restricting Calories” (priority 2006, published 2009)
At least one compound was matched to its structure with a doubt left.

Test: Clinical study on the action of the formulations for weight reduction
Type: in vivo, human
Settings: of the 8 patients; after 5 days of 100 mg chrysin
Procedure: Eight women between 52 and 59 in age who were hormonally in postmenopause and despite an activity program and targeted nutrition observed no change in weight, took 100 mg of chrysin for 5 days. This dose is under the dosages of any formulations which are offered as food supplements. After a further 5 days, the patients were advised, in order to excite the conversion of peripheral […], to take additionally 100 mg of cholic acid as supplement. Intake proceeded in each case at midday after lunch.

## O=c1cc(-c2ccccc2)oc2cc(O)cc(O)c12 [chrysin]
  patients exhibiting a reduction of body weight: five
  patients in whom no weight reduction could be observed: three
